# Measured values as given in article PMC10163288.
# Some of the results follow.
# B1: il2ra_site1_3nfp_sap_19_mot_HHH_b1_07797_af2_000000242_0001_43_57_H_._HHH_b1_05810_af2_0001_0000100011_0000001_0_0001_af2pred_0001_af2pred_1 (protein)
# chain: SVEERAEELLEEGNPEEAVKLLLEALKQLGSEAAELLAKRLEELLERGLIPPERVVKRLLRDLKA
# B2: il2ra_site1_3nfp_sap_29_mot_HHH_b1_06312_000000077_0001_1_18_H_._HHH_b1_03598_af2_0001_0000100003_0000001_1_0001_af2pred_0001_af2pred_swapped (protein)
# chain: DLAEKALKDLIKALKSLGNPELQELAEEIEELRKRNKEEALELALEVARRLGSKVAARLLELLLK
# B3: il2ra_site2_2erj_normal_mot_HHH_b1_03752_000000035_0001_21_37_H_._HHH_b1_04771_0001_0000300009_0000001_0 (protein)
# chain: SSSSDEEAERLFEELEKLVEEGDQEEVARLLKLLLELSEKLGDPTVVKLAWRALELARLISSSSS
# B4: il2ra_site2_3nfp_sap_15_mot_HHH_b1_04032_000000208_0001_43_56_H_._HHH_b1_06394_0001_0000300008_0000001_0_0001_af2pred_0001_1_af2pred_swapped (protein)
# chain: SSSSSDEEEEEVERLVEEAKRIEDEEEAERLLLKAATIAAEANDHELFALVTEVMAKLLSSSSSS
# B5: il2ra_site1_1z92_sap_15_mot_HHH_b2_03461_af2_000000290_0001_43_55_H_._HHH_b1_08688_0001_0000200013_0000001_0_0001_af2pred_0001_af2pred (protein)
# chain: SSSSSSDELERVERLFHEAMRIKDPEEAREVLEEALELAEELGDETARRDIEHILRLLSSSSSSS
# B6: il2ra_site2_3nfp_sap_10_mot_HHH_b1_00159_af2_000000185_0001_1_18_H_._HHH_b1_04724_0001_0000900032_0000001_0_0001_af2pred_0001_af2pred (protein)
# chain: SSSSSDREVEEEVEELLEEAKRIEDPEEREEVLREAALAAAEAGNQELFMAVVNVIEKLLSSSSS
# B7: il2ra_site1_3nfp_sap_18_mot_ems_3hM_2054_af2_000000130_0001_3_20_H_._HHH_b2_07863_0001_0000600021_0000001_0_0001 (protein)
# chain: SRILERFVKIARKRGNPEFARVVEILLEVLEQDPRLKRAIDKILFELVSGKLPPEEAEELAKELK
# B8: il2ra_site1_3nfp_normal_mot_HHH_b1_00274_000000174_0001_20_36_H_._9f3c0f417c9aa984f1ddc61782894328_0001_0001_0000100010_0000001_0 (protein)
# chain: KIEEFLARAVAKAPDPERAARHVIRLLRRAAPDPEIVKEIVERIIELLEELGNPEAAEILRELLK
# B9: il2ra_site2_3nfp_sap_10_mot_HHH_b2_00281_af2_000000209_0001_1_18_H_._HHH_b2_08075_af2_0001_0000600013_0000001_0_0001 (protein)
# chain: SSSSDEEVEELLKEVEELIKRGNYEEAEKLLQEASHIAWEEGDSELFFRIAELAYEVFRGSSSSS
# B10: il2ra_site1_3nfp_sap_13_mot_HHH_b2_06502_000000119_0001_42_55_H_._HHH_b2_07191_af2_0001_0000400036_0000001_0_0001_af2pred_0001_af2pred (protein)
# chain: GPEVERRAVRIALEQNSPRLLKKILEDAERFTGDPEEAERWLSELIAEVLKVPPEEAQEIVEEVK
# B11: il2ra_site2_3nfp_sap_21_mot_HHH_b2_05281_000000198_0001_39_56_H_._HHH_b1_03483_0001_0000300023_0000001_1_0001 (protein)
# chain: SSSSSDELERLAEQALEAAKTVEDPERARLALRLARAHALLNNNEELLEEIEELEKEINSSSSSS
# B12: il2ra_site1_1z92_normal_mot_6c2800a769814540b5b47941e710ff28_0001_af2_000000005_0001_35_49_H_._1b31007bc61eb1e0f5007adad2b85f91_0001_1_af2_0001_0000500014_00000 … (protein)
# chain: DEELEQLVEEARKYLPPELQRFLEELLELLKKRGDPSFEFLIRQIVKKAKIDPEAARKIVEKMRR
# B13: il2ra_site2_3nfp_sap_18_mot_HHH_b1_04032_000000208_0001_43_56_H_._HHH_b1_07268_af2_0001_0000900014_0000001_0_0001 (protein)
# chain: SSSSSDEEVEKLLEEAEELLKNGNPEEARRVLLRAFLLAAEERDHELFARLVELFEKIERSSSSS
# B14: il2ra_site2_2erj_sap_17_mot_HHH_b2_04919_000000145_0001_20_36_H_._HHH_b1_03436_af2_0001_0000300003_0000001_0_0001 (protein)
# chain: SSSSDEDMEFLEELAKEAFENRDRSRLELLIAYLELSLEDTGDPKLEELLRLVQELLERLKSSSS
# B15: il2ra_site1_1z92_sap_14_mot_07d2d8a42fb0c6931fb03626c2a0eeb8_0001_000000072_0001_36_50_H_._21a7f3f59e5862fd80bc1ac137a4a28b_0001_1_0001_0000200025_0000001_0_000 … (protein)
# chain: SSSDLAEELEELLEEARELDPRARELLELLLRQVRMAEEHGDEKALETARKLIEAKLKTINSSSS
# B16: il2ra_site2_3nfp_sap_25_mot_HHH_b2_07498_000000293_0001_1_14_H_._HHH_b1_01574_0001_0000100004_0000001_0_0001_af2pred_0001_1_af2pred_swapped (protein)
# chain: SSSSSDEELLEEAKRLLEEGNLEEAFRVLAEAASEAIELGDEELAHEIAALAIEVAEKLGSSSSS
# B17: il2ra_site2_2erj_sap_20_mot_493fd54309310d9249ba1f7ad6a52a72_0001_1_000000066_0001_37_51_H_._HHH_b2_08134_af2_0001_0000600016_0000001_0_0001 (protein)
# chain: SSSDRELSRRLLEVIFRLLAELNLSIEQMEELFELLEELLRRGVSEEEAEELLREEAEELASSSS
# B18: il2ra_site2_2erj_normal_mot_HHH_b2_05976_000000049_0001_1_19_H_._HHH_b2_01889_af2_0001_0000400014_0000001_0 (protein)
# chain: SSSSSDQEEAWERVAKLLAELSHVSEEEFEKLLEEAEELAKEANSPALKRYVEYARRDHSSSSSS
# B19: il2ra_site1_1z92_sap_14_mot_7cd355b931c3777444dbab6abe2c9f76_0001_000000112_0001_52_65_H_._HEEHE_0071_af2_0002_0000500018_0000001_0_0001_af2pred_0001_af2pred_1 (protein)
# chain: SSSSSNDSEFLWEVIEEANKLFKEDPEEAKRLLEEAAERLEEQNNEAAVRQLERFLEAAKSSSSS
# B20: il2ra_site1_2b5i_sap_14_mot_HHH_b2_04373_af2_000000166_0001_1_14_H_._HHH_b2_00804_0001_0000600071_0000001_0_0001_af2pred_dldesign_0_af2pred (protein)
# chain: DLKAKLEAELAKTGNPYYTKLLKILEAGEAAGDERTEKYVEYLYRRLKKGNPKAVRAIESAAEVV
# B21: il2ra_site1_2b5i_normal_mot_HHH_b1_08745_af2_000000166_0001_39_57_H_._HHH_b1_06268_0001_0000500025_0000001_0_af2pred_dldesign_0_af2pred (protein)
# chain: SSSSSVGKRLRELLKEAERLRKEGKDEEAKELLEKALELAEEAKMNAFKKIVESALKNLESSSSS
# B22: il2ra_site1_2b5i_sap_10_mot_HHH_b1_06833_000000178_0001_1_19_H_._HHH_b2_04591_0001_0000500023_0000001_0_0001_af2pred_dldesign_0_af2pred (protein)
# chain: SSSSSDPGYRELVDALIEEARKIEDPLLRRRILTLARLTAKKGKDPELVAKVEAEEAALSSSSSS
# B23: il2ra_site1_2b5i_normal_mot_2cbe48e66a1f39b3fed734b245ab0a04_0001_000000015_0001_17_31_H_._HHH_b1_01960_0001_0000800030_0000001_0_af2pred_dldesign_0_af2pred (protein)
# chain: SSSSSDPAGRAEVERLIEEAKKLKDFAEASKKLYEALKLARKLGDEELIKKVEEVYKKFSSSSSS
# B24: il2ra_site2_3nfp_normal_mot_HHH_b1_07095_000000265_0001_1_20_H_._HHH_b1_00955_0001_0000100022_0000001_0 (protein)
# chain: SSSSSELEEEVRKLIEEARELLERGNPEEARRVLAKAADLAFQARNFELFALLNELMELVTSSSS
# Biological target: il2ra, P01589
# Assay: yeast display titration
row,Binder,apparent Kd
1,B1,inactive: no binding seen
2,B2,inactive: no binding seen
3,B3,inactive: no binding seen
4,B4,inactive: no binding seen
5,B5,inactive: no binding seen
6,B6,inactive: no binding seen
7,B7,inactive: no binding seen
8,B8,inactive: no binding seen
9,B9,inactive: no binding seen
10,B10,inactive: > 1040 nM
11,B11,inactive: no binding seen
12,B12,inactive: no binding seen
13,B13,inactive: no binding seen
14,B14,inactive: no binding seen
15,B15,inactive: no binding seen
16,B16,inactive: no binding seen
17,B17,inactive: no binding seen
18,B18,inactive: no binding seen
19,B19,inactive: no binding seen
20,B20,inactive: no binding seen
21,B21,inactive: no binding seen
22,B22,inactive: no binding seen
23,B23,inactive: no binding seen
24,B24,inactive: no binding seen

# Some of the entries so far, with bars between the fields:
row | Binder | apparent Kd
10 | B10 | inactive: > 1040 nM
11 | B11 | inactive: no binding seen
